From article doi:10.1101/2023.06.26.546506 come the findings set out here.

Protein sequences, listed by entry. Tags and fused reporters are not part of them. Lines headed by an entry give the natural chain unless they say otherwise; changes in a name come on top.
UniProt P01583: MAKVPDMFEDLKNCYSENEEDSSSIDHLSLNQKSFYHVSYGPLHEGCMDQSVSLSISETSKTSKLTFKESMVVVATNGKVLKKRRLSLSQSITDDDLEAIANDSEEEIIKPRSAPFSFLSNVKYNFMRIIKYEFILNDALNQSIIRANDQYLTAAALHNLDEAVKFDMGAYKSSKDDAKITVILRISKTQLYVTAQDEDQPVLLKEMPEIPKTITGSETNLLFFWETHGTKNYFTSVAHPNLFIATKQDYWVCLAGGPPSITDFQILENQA
UniProt Q9Y6Q9: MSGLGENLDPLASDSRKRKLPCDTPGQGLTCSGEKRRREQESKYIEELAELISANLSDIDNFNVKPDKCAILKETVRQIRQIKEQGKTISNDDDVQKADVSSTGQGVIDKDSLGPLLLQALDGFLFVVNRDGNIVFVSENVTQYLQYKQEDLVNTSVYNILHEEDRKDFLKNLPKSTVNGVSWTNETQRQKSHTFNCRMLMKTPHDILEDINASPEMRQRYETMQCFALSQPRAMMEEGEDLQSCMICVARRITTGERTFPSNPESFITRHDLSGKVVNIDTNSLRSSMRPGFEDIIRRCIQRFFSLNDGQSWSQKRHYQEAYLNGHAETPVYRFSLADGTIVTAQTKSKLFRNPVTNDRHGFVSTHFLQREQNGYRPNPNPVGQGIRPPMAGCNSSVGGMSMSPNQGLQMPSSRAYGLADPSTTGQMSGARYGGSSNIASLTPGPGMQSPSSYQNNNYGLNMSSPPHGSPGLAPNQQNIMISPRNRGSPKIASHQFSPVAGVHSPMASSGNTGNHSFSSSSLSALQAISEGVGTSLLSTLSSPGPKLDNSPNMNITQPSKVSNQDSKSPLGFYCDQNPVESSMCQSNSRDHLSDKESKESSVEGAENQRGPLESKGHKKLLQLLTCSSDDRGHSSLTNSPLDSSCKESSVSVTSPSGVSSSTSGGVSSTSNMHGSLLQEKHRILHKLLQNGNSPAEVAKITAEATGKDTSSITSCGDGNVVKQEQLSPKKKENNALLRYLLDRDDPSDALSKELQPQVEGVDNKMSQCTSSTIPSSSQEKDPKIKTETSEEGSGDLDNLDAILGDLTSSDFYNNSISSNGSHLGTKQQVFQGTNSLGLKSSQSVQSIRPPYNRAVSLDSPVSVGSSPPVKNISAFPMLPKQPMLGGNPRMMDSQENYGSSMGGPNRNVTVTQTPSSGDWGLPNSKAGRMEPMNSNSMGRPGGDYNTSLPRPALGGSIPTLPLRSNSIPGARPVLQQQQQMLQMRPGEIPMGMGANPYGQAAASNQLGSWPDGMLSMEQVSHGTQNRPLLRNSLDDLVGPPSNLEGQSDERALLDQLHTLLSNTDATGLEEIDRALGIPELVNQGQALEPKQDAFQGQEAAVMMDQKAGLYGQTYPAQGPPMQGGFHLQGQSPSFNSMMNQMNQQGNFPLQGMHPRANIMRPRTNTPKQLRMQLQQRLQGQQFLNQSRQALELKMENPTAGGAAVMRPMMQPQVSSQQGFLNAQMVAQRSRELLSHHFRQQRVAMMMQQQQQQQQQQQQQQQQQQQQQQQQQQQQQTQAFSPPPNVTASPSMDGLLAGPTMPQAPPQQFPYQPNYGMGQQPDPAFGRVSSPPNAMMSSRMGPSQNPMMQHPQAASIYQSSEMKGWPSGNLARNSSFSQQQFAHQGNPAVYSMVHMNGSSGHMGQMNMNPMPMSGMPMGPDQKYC
UniProt Q9NPF5: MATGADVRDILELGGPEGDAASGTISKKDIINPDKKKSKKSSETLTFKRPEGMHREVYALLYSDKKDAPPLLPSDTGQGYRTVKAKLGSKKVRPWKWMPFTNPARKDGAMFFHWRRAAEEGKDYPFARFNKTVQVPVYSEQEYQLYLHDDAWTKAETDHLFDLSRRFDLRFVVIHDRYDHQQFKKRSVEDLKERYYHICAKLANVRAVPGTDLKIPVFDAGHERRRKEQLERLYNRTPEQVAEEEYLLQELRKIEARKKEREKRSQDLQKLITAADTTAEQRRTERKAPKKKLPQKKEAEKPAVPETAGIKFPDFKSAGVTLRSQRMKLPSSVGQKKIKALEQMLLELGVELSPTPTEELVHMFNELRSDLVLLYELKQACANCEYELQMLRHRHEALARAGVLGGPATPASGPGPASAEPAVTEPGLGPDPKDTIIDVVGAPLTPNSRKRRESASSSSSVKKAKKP
UniProt Q09472: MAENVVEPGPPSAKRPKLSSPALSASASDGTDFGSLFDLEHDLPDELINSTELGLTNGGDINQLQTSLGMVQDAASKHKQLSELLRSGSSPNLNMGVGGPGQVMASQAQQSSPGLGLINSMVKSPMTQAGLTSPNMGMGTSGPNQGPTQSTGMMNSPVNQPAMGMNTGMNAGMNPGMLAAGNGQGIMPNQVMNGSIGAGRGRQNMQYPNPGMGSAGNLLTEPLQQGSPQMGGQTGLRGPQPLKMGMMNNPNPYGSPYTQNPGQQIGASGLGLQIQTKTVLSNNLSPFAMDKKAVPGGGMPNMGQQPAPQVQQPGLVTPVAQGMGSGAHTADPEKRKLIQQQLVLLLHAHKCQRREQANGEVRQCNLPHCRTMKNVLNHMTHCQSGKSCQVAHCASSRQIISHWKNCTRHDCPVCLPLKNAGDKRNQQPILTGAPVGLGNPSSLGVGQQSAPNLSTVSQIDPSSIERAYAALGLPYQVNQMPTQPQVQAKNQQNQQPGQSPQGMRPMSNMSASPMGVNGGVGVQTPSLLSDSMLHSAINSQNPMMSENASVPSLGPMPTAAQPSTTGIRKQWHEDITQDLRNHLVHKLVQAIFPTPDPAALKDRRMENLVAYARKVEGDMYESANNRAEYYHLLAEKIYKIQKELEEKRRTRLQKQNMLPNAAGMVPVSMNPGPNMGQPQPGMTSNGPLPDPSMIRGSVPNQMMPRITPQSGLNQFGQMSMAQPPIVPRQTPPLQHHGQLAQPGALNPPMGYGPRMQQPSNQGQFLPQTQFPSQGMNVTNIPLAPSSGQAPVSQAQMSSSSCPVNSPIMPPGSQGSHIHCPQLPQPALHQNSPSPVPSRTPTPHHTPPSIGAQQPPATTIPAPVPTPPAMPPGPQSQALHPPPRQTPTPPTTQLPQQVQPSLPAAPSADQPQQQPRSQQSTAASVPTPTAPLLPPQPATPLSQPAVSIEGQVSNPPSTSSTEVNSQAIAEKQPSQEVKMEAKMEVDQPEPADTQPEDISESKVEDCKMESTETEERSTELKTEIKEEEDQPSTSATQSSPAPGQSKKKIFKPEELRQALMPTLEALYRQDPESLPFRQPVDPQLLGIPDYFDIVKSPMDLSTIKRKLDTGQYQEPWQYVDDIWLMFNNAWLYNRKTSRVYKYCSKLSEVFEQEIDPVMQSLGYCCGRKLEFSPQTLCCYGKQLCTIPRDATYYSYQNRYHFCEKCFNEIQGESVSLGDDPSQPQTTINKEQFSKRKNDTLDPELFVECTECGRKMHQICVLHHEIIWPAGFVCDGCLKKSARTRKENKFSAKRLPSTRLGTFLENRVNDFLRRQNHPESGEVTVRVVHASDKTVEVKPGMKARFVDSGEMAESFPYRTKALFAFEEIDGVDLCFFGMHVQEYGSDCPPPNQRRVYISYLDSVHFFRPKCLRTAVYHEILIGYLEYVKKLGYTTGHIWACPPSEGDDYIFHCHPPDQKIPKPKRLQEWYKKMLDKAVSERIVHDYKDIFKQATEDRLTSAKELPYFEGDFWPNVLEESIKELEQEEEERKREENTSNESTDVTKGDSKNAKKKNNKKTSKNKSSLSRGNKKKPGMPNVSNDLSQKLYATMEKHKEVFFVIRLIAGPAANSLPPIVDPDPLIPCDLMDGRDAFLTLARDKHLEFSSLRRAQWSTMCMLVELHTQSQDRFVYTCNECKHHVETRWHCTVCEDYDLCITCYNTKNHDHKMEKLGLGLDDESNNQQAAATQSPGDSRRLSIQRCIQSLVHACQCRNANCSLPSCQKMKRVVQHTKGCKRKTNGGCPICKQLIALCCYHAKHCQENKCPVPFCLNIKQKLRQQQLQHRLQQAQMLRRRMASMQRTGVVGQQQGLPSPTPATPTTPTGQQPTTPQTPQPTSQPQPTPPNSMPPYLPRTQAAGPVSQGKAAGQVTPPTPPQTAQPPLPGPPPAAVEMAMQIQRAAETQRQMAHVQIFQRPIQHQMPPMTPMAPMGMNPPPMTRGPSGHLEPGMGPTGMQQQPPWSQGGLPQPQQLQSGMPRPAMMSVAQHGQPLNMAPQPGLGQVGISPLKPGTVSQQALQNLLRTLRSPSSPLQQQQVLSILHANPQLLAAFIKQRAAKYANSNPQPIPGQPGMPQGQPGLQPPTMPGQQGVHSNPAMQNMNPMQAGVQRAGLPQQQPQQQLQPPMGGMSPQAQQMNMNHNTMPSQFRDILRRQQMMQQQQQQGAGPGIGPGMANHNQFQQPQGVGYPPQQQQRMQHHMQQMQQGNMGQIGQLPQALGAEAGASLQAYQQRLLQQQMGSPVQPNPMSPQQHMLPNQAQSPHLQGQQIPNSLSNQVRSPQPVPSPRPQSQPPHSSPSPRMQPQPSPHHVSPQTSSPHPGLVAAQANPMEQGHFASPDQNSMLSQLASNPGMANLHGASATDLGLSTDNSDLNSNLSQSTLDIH
UniProt Q15596: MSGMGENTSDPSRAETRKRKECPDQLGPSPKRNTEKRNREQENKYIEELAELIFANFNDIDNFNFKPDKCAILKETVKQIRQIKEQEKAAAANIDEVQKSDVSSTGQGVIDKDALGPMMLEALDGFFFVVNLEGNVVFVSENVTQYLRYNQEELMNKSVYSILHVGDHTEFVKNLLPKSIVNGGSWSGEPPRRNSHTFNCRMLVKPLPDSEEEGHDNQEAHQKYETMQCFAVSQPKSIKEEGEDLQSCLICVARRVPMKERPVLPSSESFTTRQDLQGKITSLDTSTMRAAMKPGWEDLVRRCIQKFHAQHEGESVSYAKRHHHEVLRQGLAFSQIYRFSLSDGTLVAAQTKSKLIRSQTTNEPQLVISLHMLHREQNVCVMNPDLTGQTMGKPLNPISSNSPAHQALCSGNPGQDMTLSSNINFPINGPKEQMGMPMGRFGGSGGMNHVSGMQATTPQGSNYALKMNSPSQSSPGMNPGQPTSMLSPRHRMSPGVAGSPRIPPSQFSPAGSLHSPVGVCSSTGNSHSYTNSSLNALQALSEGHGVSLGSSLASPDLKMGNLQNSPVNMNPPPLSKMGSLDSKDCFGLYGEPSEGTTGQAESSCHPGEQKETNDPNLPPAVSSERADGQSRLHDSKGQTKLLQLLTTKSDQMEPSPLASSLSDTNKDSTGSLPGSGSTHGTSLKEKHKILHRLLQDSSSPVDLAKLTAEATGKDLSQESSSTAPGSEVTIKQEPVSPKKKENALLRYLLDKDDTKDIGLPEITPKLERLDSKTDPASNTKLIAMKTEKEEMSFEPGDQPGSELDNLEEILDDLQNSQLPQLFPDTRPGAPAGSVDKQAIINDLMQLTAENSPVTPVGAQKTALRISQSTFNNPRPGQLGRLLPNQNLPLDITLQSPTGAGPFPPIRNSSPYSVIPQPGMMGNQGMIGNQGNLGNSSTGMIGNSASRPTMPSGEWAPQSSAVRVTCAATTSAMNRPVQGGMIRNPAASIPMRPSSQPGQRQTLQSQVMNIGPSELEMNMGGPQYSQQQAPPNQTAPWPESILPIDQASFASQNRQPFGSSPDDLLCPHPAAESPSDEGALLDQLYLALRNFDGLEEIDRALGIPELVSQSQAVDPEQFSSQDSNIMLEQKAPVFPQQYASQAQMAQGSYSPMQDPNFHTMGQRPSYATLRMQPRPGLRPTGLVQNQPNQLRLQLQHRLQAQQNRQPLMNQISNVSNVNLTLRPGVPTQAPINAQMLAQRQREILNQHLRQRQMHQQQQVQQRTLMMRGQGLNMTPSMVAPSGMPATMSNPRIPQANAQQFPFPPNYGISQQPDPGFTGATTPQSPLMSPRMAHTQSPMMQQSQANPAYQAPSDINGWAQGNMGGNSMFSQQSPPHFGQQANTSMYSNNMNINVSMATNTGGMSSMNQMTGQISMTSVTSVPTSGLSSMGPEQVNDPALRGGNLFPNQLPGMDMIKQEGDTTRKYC

Read-outs that look alike come from different tables or passages of the source. These are yes or no findings as the source states them, for the method shown. Binding seen in cells or lysates may run through a third protein. These calls come from enrichment with a bait or labelling near it, and not all partners need be listed.

In assay [1] the target is pro-IL-1α-TurboID (human) (UniProt P01583). Put plainly: proximity labelling.
The target is the same in assay [2]. Put plainly: proximity labelling. This is another data set of the same source.

As to NCOA3 (from UniProt Q9Y6Q9 1-1424), the binding result in assay [1] was “binds”.
On the same count and under the same terms, the same measure for SUPT20H (from UniProt Q8NEM7 1-779): “binds”; for DMAP1 (from UniProt Q9NPF5 1-467): “binds”; for UBR2 (from UniProt Q8IWV8 1-1755): “binds”.
In the case of EPC1 (from UniProt Q9H2F5 1-836), the binding result in assay [1] is reported as “binds”.
Consider EP300 (from UniProt Q09472 1-2414), for which the binding entry in assay [1] is reported as “binds”.
For the molecule NCOA2 (from UniProt Q15596 1-1464), the binding result in assay [1] is “binds”.
On the same count and under the same terms, with EP400 (from UniProt Q96L91 1-3159) the entry was “binds”.

B1: ZZZ3 (protein, UniProt Q8IYH5 1-903)
chain: MAASRSTRVTRSTVGLNGLDESFCGRTLRNRSIAHPEEISSNSQVRSRSPKKRPEPVPIQKGNNNGRTTDLKQQSTRESWVSPRKRGLSSSEKDNIERQAIENCERRQTEPVSPVLKRIKRCLRSEAPNSSEEDSPIKSDKESVEQRSTVVDNDADFQGTKRACRCLILDDCEKREIKKVNVSEEGPLNSAVVEEITGYLAVNGVDDSDSAVINCDDCQPDGNTKQNSIGSYVLQEKSVAENGDTDTQTSMFLDSRKEDSYIDHKVPCTDSQVQVKLEDHKIVTACLPVEHVNQLTTEPATGPFSETQSSLRDSEEEVDVVGDSSASKEQCKENTNNELDTSLESMPASGEPEPSPVLDCVSAQMMSLSEPQEHRYTLRTSPRRAAPTRGSPTKNSSPYRENGQFEENNLSPNETNATVSDNVSQSPTNPGEISQNEKGICCDSQNNGSEGVSKPPSEARLNIGHLPSAKESASQHITEEEDDDPDVYYFESDHVALKHNKDYQRLLQTIAVLEAQRSQAVQDLESLGRHQREALKNPIGFVEKLQKKADIGLPYPQRVVQLPEIVWDQYTHSLGNFEREFKNRKRHTRRVKLVFDKVGLPARPKSPLDPKKDGESLSYSMLPLSDGPEGSSSRPQMIRGRLCDDTKPETFNQLWTVEEQKKLEQLLIKYPPEEVESRRWQKIADELGNRTAKQVASRVQKYFIKLTKAGIPVPGRTPNLYIYSKKSSTSRRQHPLNKHLFKPSTFMTSHEPPVYMDEDDDRSCFHSHMNTAVEDASDDESIPIMYRNLPEYKELLQFKKLKKQKLQQMQAESGFVQHVGFKCDNCGIEPIQGVRWHCQDCPPEMSLDFCDSCSDCLHETDIHKEDHQLEPIYRSETFLDRDYCVSQGTSYNYLDPNYFPANR
On to B1, for which the binding entry in assay [2] is “binds”.

B2: CRT2C (protein, UniProt Q53ET0 1-693)
chain: MATSGANGPGSATASASNPRKFSEKIALQKQRQAEETAAFEEVMMDIGSTRLQAQKLRLAYTRSSHYGGSLPNVNQIGSGLAEFQSPLHSPLDSSRSTRHHGLVERVQRDPRRMVSPLRRYTRHIDSSPYSPAYLSPPPESSWRRTMAWGNFPAEKGQLFRLPSALNRTSSDSALHTSVMNPSPQDTYPGPTPPSILPSRRGGILDGEMDPKVPAIEENLLDDKHLLKPWDAKKLSSSSSRPRSCEVPGINIFPSPDQPANVPVLPPAMNTGGSLPDLTNLHFPPPLPTPLDPEETAYPSLSGGNSTSNLTHTMTHLGISRGMGLGPGYDAPGLHSPLSHPSLQSSLSNPNLQASLSSPQPQLQGSHSHPSLPASSLARHVLPTTSLGHPSLSAPALSSSSSSSSTSSPVLGAPSYPASTPGASPHHRRVPLSPLSLLAGPADARRSQQQLPKQFSPTMSPTLSSITQGVPLDTSKLSTDQRLPPYPYSSPSLVLPTQPHTPKSLQQPGLPSQSCSVQSSGGQPPGRQSHYGTPYPPGPSGHGQQSYHRPMSDFNLGNLEQFSMESPSASLVLDPPGFSEGPGFLGGEGPMGGPQDPHTFNHQNLTHCSRHGSGPNIILTGDSSPGFSKEIAAALAGVPGFEVSAAGLELGLGLEDELRMEPLGLEGLNMLSDPCALLPDPAVEESFRSDRLQ
As for B2, the binding result in assay [2] was “binds”.
